From US20220242958A1, “BISPECIFIC NANOBODIES” (Ablynx N.V., priority 2013, published 2022)
Changes are numbered by the printed parent chain. Numbers in names are those of the source. Results are given in words; binding and its absence hold for the method and conditions named. Some entries that bind do so weakly or less than the wild type. For part of these data: Tags and fused reporters may be left off the sequences shown.

The chains behind the UniProt entries cited, without tags or fusion partners. Where a name states a change or a piece, a line headed by the entry shows the natural chain unless it says otherwise.
UniProt P61073: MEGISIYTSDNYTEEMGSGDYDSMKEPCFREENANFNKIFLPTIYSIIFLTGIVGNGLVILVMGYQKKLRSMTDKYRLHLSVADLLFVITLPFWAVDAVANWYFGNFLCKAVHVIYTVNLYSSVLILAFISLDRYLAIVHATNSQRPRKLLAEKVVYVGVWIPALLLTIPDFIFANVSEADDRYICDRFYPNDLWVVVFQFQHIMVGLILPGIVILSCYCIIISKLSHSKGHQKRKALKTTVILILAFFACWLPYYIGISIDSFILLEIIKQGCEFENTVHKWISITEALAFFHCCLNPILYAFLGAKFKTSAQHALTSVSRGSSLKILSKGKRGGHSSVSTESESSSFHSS
UniProt P26951: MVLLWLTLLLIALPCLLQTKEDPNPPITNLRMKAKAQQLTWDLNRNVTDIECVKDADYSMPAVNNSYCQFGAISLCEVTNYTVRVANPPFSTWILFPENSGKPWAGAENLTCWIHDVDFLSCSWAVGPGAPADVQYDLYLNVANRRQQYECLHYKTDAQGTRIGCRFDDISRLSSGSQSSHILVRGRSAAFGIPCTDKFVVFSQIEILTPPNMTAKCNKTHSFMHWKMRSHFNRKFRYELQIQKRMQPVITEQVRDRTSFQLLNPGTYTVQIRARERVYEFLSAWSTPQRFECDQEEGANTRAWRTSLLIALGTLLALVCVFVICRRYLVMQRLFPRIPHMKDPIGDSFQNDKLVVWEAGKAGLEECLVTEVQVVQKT

Columns and labels:
[1] = biological target: CXCR4 and CD4 co-expressed on cells (human) (UniProt P61073+P01730); experiment: FACS, Jurkat cells
[2] = biological target: human CD4, cell-expressed (human) (UniProt P01730); experiment: FACS, activated human T cells (CD4 very high, IL12R moderate)
[3] = biological target: human CD4, cell-expressed (human) (UniProt P01730); experiment: multi-colour FACS, TH1 activated T cells
[4] = biological target: human CD4, cell-expressed (human) (UniProt P01730); experiment: FACS, MOLM-13 cells
[5] = biological target: human CXCR4 (on cells, membrane extracts or viral lipoparticles) (human) (UniProt P61073); experiment: cell binding and CXCR4-VLP ELISA
[6] = biological target: T1, CXCR4 and IL-3Rα (CD123) co-expressed on MOLM-13 cells (human) (UniProt P61073+P26951); experiment: FACS at 4.6 nM, MOLM-13 (CXCR4+/CD123+)
[7] = biological target: T1, CXCR4 and IL-3Rα (CD123) co-expressed on MOLM-13 cells (human); experiment: FACS, MOLM-13 cells
[8] = biological target: T1, CXCR4 and IL-3Rα (CD123) co-expressed on MOLM-13 cells (human); experiment: FACS at 4.6 nM, mixed MOLM-13 and Jurkat E6-1 cells

B1: 281F12-35GS-03F11 (bispecific antibody)
chain: EVQLVESGGGLVQAGDSLRLSCAASGRAFSRYAMGWFRQAPGKEREFVAAIGWGPSKTNYADSVKGRFTISRDNAKNTVYLQMNTLKPEDTAVYSCAAKFVNTDSTWSRSEMYTYWGQGTQVTVSSGGGGSGGGGSGGGGSGGGGSGGGGSGGGGSGGGGSEVQLVESGGGSVQPGGSLTLSCGTSGRTFNVMGWFRQAPGKEREFVAAVRWSSTGIYYTQYADSVKSRFTISRDNAKNTVYLEMNSLKPEDTAVYYCAADTYNSNPARWDGYDFRGQGTQVTVSS
[1]
  binding: binds

B2: IL12Rb2#1-CD4#8 (bispecific antibody)
chain: EVQLVESGGRLVQAGDSLRLSCAASGRTFISYRMGWFRQAPGKEREFVAALRWSSSNIDYTYYADSVKGRFSISGDYAKNTVYLQMNSLKAEDTAVYYCAASTRWGVMESDTEYTSWGQGTLVTVSSGGGGSGGGGSGGGGSGGGGSGGGGSGGGGSGGGGSEVQLVESGGGSVQPGGSLTLSCGTSGRTFNVMGWFRQAPGKEREFVAAVRWSSTGIYYTQYADSVKSRFTISRDNAKNTVYLEMNSLKPEDTAVYYCAADTYNSNPARWDGYDFRGQGTLVTVSS
[2]
  binding: binds
[3]
  binding: binds
[4]
  binding: binds

B3: IL12Rb2#2-CD4#8 (bispecific antibody)
chain: B2 chain with I30T, A49S, S56G
[2]
  binding: binds
[4]
  binding: binds

B4: CD4#8-IL12Rb2#1 (bispecific antibody)
chain: EVQLVESGGGSVQPGGSLTLSCGTSGRTFNVMGWFRQAPGKEREFVAAVRWSSTGIYYTQYADSVKSRFTISRDNAKNTVYLEMNSLKPEDTAVYYCAADTYNSNPARWDGYDFRGQGTLVTVSSGGGGSGGGGSGGGGSGGGGSGGGGSGGGGSGGGGSEVQLVESGGRLVQAGDSLRLSCAASGRTFISYRMGWFRQAPGKEREFVAALRWSSSNIDYTYYADSVKGRFSISGDYAKNTVYLQMNSLKAEDTAVYYCAASTRWGVMESDTEYTSWGQGTLVTVSS
[2]
  binding: binds
[4]
  binding: binds

B5: CD4#8-IL12Rb2#2 (bispecific antibody)
chain: B4 chain with I190T, A209S, S216G
[2]
  binding: binds
[4]
  binding: binds

B6: 14D09 (TAG), 4CXCR014D09-FLAG3-HIS6 (VHH)
VHH: EVQLVESGGGLVQAGGSLRLSCVASGISSSKRNMGWYRQAPGKQRESVATISSGGNKDYTDAVKDRFTISRDTTKNTVYLQMNSLKPEDTAVYYCKIEAGTGWATRRGYTYWGQGTLVTVSS
[5]
  binding: binds

B7: 14D09-57A07 (4CXCR014D09(Q108L)-35GS-A0110057A07) (bispecific antibody)
chain: EVQLVESGGGLVQAGGSLRLSCVASGISSSKRNMGWYRQAPGKQRESVATISSGGNKDYTDAVKDRFTISRDTTKNTVYLQMNSLKPEDTAVYYCKIEAGTGWATRRGYTYWGQGTLVTVSSGGGGSGGGGSGGGGSGGGGSGGGGSGGGGSGGGGSEVQLVESGGGLVQAGGSLRLSCAASGSIFSGNVMGWYRRQAPGKEREWVAAIASGGSIYYRDSVKGRFTISRDNAKNTVYLQMNSLKPEDTAVYYCNSHPPTLPYWGQGTLVTVSSAAAEQKLISEEDLNGAAHHHHHH
[6]
  binding: binds
[7]
  binding: binds

B8: 14D09-55A01 (4CXCR014D09(Q108L)-35GS-A0110055A01) (bispecific antibody)
chain: EVQLVESGGGLVQAGGSLRLSCVASGISSSKRNMGWYRQAPGKQRESVATISSGGNKDYTDAVKDRFTISRDTTKNTVYLQMNSLKPEDTAVYYCKIEAGTGWATRRGYTYWGQGTLVTVSSGGGGSGGGGSGGGGSGGGGSGGGGSGGGGSGGGGSEVQLVESGGGSVQAGGSLRLSCTTSGRALNMYVMGWFRQAPGNEREFVAATSSSGGSTSYPDSVKGRFTISRDNAKNTVYLQMNSLKPEDTAAYRCAASPYVSTPTMNILEEYRYWGQGTLVTVSSAAAEQKLISEEDLNGAAHHHHHH
[6]
  binding: binds
[7]
  binding: binds

B9: 281F12-57A07 (4CXCR281F12(Q108L)-35GS-A0110057A07) (bispecific antibody)
chain: EVQLVESGGGLVQAGDSLRLSCAASGRAFSRYAMGWFRQAPGKEREFVAAIGWGPSKTNYADSVKGRFTISRDNAKNTVYLQMNTLKPEDTAVYSCAAKFVNTDSTWSRSEMYTYWGQGTLVTVSSGGGGSGGGGSGGGGSGGGGSGGGGSGGGGSGGGGSEVQLVESGGGLVQAGGSLRLSCAASGSIFSGNVMGWYRRQAPGKEREWVAAIASGGSIYYRDSVKGRFTISRDNAKNTVYLQMNSLKPEDTAVYYCNSHPPTLPYWGQGTLVTVSSAAAEQKLISEEDLNGAAHHHHHH
[6]
  binding: binds
[7]
  binding: binds

B10: 281F12-55A01 (4CXCR281F12(Q108L)-35GS-A0110055A01) (bispecific antibody)
chain: EVQLVESGGGLVQAGDSLRLSCAASGRAFSRYAMGWFRQAPGKEREFVAAIGWGPSKTNYADSVKGRFTISRDNAKNTVYLQMNTLKPEDTAVYSCAAKFVNTDSTWSRSEMYTYWGQGTLVTVSSGGGGSGGGGSGGGGSGGGGSGGGGSGGGGSGGGGSEVQLVESGGGSVQAGGSLRLSCTTSGRALNMYVMGWFRQAPGNEREFVAATSSSGGSTSYPDSVKGRFTISRDNAKNTVYLQMNSLKPEDTAAYRCAASPYVSTPTMNILEEYRYWGQGTLVTVSSAAAEQKLISEEDLNGAAHHHHHH
[6]
  binding: binds
[7]
  binding: binds

B11: 57A07-14D09 (A0110057A07-35GS-4CXCR014D09(Q108L)) (bispecific antibody)
chain: EVQLVESGGGLVQAGGSLRLSCAASGSIFSGNVMGWYRRQAPGKEREWVAAIASGGSIYYRDSVKGRFTISRDNAKNTVYLQMNSLKPEDTAVYYCNSHPPTLPYWGQGTLVTVSSGGGGSGGGGSGGGGSGGGGSGGGGSGGGGSGGGGSEVQLVESGGGLVQAGGSLRLSCVASGISSSKRNMGWYRQAPGKQRESVATISSGGNKDYTDAVKDRFTISRDTTKNTVYLQMNSLKPEDTAVYYCKIEAGTGWATRRGYTYWGQGTLVTVSSAAAEQKLISEEDLNGAAHHHHHH
[8]
  binding: binds
[7]
  binding: binds

B12: 57A07-281F12 (A0110057A07-35GS-4CXCR281F12(Q108L)) (bispecific antibody)
chain: EVQLVESGGGLVQAGGSLRLSCAASGSIFSGNVMGWYRRQAPGKEREWVAAIASGGSIYYRDSVKGRFTISRDNAKNTVYLQMNSLKPEDTAVYYCNSHPPTLPYWGQGTLVTVSSGGGGSGGGGSGGGGSGGGGSGGGGSGGGGSGGGGSEVQLVESGGGLVQAGDSLRLSCAASGRAFSRYAMGWFRQAPGKEREFVAAIGWGPSKTNYADSVKGRFTISRDNAKNTVYLQMNTLKPEDTAVYSCAAKFVNTDSTWSRSEMYTYWGQGTLVTVSSAAAEQKLISEEDLNGAAHHHHHH
[8]
  binding: binds
[7]
  binding: binds

B13: 55A01-14D09 (A0110055A01-35GS-4CXCR014D09(Q108L)) (bispecific antibody)
chain: EVQLVESGGGSVQAGGSLRLSCTTSGRALNMYVMGWFRQAPGNEREFVAATSSSGGSTSYPDSVKGRFTISRDNAKNTVYLQMNSLKPEDTAAYRCAASPYVSTPTMNILEEYRYWGQGTLVTVSSGGGGSGGGGSGGGGSGGGGSGGGGSGGGGSGGGGSEVQLVESGGGLVQAGGSLRLSCVASGISSSKRNMGWYRQAPGKQRESVATISSGGNKDYTDAVKDRFTISRDTTKNTVYLQMNSLKPEDTAVYYCKIEAGTGWATRRGYTYWGQGTLVTVSSAAAEQKLISEEDLNGAAHHHHHH
[8]
  binding: binds
[7]
  binding: binds

B14: 55A01-281F12 (A0110055A01-35GS-4CXCR281F12(Q108L)) (bispecific antibody)
chain: EVQLVESGGGSVQAGGSLRLSCTTSGRALNMYVMGWFRQAPGNEREFVAATSSSGGSTSYPDSVKGRFTISRDNAKNTVYLQMNSLKPEDTAAYRCAASPYVSTPTMNILEEYRYWGQGTLVTVSSGGGGSGGGGSGGGGSGGGGSGGGGSGGGGSGGGGSEVQLVESGGGLVQAGDSLRLSCAASGRAFSRYAMGWFRQAPGKEREFVAAIGWGPSKTNYADSVKGRFTISRDNAKNTVYLQMNTLKPEDTAVYSCAAKFVNTDSTWSRSEMYTYWGQGTLVTVSSAAAEQKLISEEDLNGAAHHHHHH
[8]
  binding: binds
[7]
  binding: binds
